The record followed here is article doi:10.1101/2025.05.13.653872.

No constants are given. Whether binding was seen depends on the method and setting. In cells and extracts the contact can be indirect. Here binding means that the protein was enriched with, or labelled near, the bait; the list need not be complete. Tags and fused reporters may be left off the sequences shown.

For the experiment, the target named is 3xFlag-PcrP overexpressed in P. aeruginosa ΔpcrP (P. aeruginosa PAO1) (UniProt Q9I040). Nature of the experiment: affinity purification with mass spectrometry; 3xFlag-PcrP overexpressed in ΔpcrP grown in BMM8 (high Pi, 580 μM) or BMMH8 (low Pi, 50 μM) at 0 or 5 mM Ca2+; lysate (1 mg/ml) on ANTI-FLAG M2 magnetic beads, 2 h at 4°C, washed with 10 mM Tris-HCl pH 7.5; LC-MS/MS; ΔpcrP as negative control.

B1: PA3831 leucine aminopeptidase (protein, UniProt O68822 1-495)
chain: MEFLVKSVRPETLKTATLVLAVGEGRKLGASAKAVDDATGGAISAVLKRGDLAGKVGQTLLLQSLPNLKAERVLLVGAGKERELGDRQYRKLASAVLSTLKGLAGADAALALGDLAVKGRDAHAKARLLVETLADGLYVFDRYKSQKAEPLKLKKLTLLADKADSAAVEQGSKEAQAIANGMALTRDLGNLPPNVCHPTFLGEQAKGLAKEFKGLKVEVLDEKKLRELGMGSFLAVAQGSDQPPRLIVLQYNGAKKDQAPHVLVGKGITFDTGGISLKPGLGMDEMKFDMCGAASVFGTFRAVLELQLPINLVGLLACAENMPSGGATRPGDIVTTMSGQTVEILNTDAEGRLVLCDALTYAERFKPQSVIDIATLTGACIVALGSNTSGLMGNNEALVRQLLKAGEFADDRAWQLPLFDEYQEQLDSPFADIANIGGPKAGTITAGCFLSRFAKKYHWAHLDIAGTAWISGGKDKGATGRPVPLLTQYLLERAK
For B1, the binding result is “binds”.

B2: PurF (PA3108), amidophosphoribosyltransferase (protein, UniProt Q51342 1-501)
chain: MCGIVGIVGKSNVNQALYDALTVLQHRGQDAAGIVTCHDDKLYLRKDNGLVRDVFQQRHMQRLIGSVGIGHVRYPTAGSSSSAEAQPFYVNSPYGITLAHNGNLTNVEQLAKEIYESDLRHVNTNSDSEVLLNVFAHELAVRNKLQPTEEDIFAAVSCVHDRCVGGYAVVAMITGHGIVGFRDPNAIRPIVFGQRHTENGVEYMIASESVALDVLGFTLIRDLAPGEAVYITEEGKLYTRQCAKAPKYAPCIFEHVYLARPDSIMDGISVYKARLRMGEKLADKILRERPDHDIDVVIPIPDTSRTAALELANRLGVKFREGFVKNRYIGRTFIMPGQAARKKSVRQKLNAIELEFRGKNVMLVDDSIVRGTTCKQIIQMAREAGAKNVYFCSAAPAVRYPNVYGIDMPSAHELIAHNRSTEDVSKLIGADWLVYQDLPDLIDAVGGGKIKIDHFDCAVFDGEYVTGDVNEAYLNRIEQARNDATKAKSQAVSAIIDLYND
Turning to B2, the binding entry is “binds”.

B3: PA4352 conserved hypothetical protein (protein, UniProt Q9HW49 1-286)
chain: MKRILVATDLSSRSELAVMRAAALAKARNAELTVLNVLDDDQPPVLIAPQRLAIANLLEVNGQALKERLGVESKAIVRVGDPVVVINAVAEEIGADLLVMGAHRHTPLRDLFIGTTLERVVRNAKIPVLRAAGAPEEEYRRVLLALDFSPTSTRAVQMAGQLGFLDAASLTALHAFEPFAKGMMRYSGIKEDRVEHYVDQEELKANVELRDYVAGLGLGREDIQLRVGEGLPINVIMTEVRRQAPQLTVLGTQGLTGFRRALIGSVAEAALGDLPCDVLAVPPKRD
Take B3: the binding result is “binds”.

B4: HisI (PA5066), phosphoribosyl-AMP cyclohydrolase (protein, UniProt Q9HUB7 1-134)
chain: MKDWLDEIHWNADGLVPAIAQDHETGRVLMMAWMNREALALTASENRAIYWSRSRGKLWRKGEESGHVQKLHELRLDCDADVVILMVEQVGGIACHTGRESCFYRVFENGAWKTVDPVLKDPDAIYEHAGHHHE
Regarding B4, the binding result was “binds”.

B5: PA1681 chorismate synthase (protein, UniProt Q9I344 1-363)
chain: MSGNTYGKLFTVTTAGESHGPALVAIVDGCPPGLELSARDLQRDLDRRKPGTSRHTTQRQEADEVEILSGVFEGKTTGTPIGLLIRNTDQKSKDYSAIKDLFRPAHADYTYHHKYGVRDYRGGGRSSARETAMRVAAGAIAKKYLAGLGIQVRGYMSQLGPIEIPFRSWDSVEQNAFFSPDPDKVPELEAYMDQLRRDQDSVGAKITVVAEGVPPGLGEPIFDRLDAELAHALMSINAVKGVEIGAGFASIAQRGTEHRDELTPQGFLSNNAGGILGGISSGQPIVAHLALKPTSSITTPGRSIDTAGEPVDMITKGRHDPCVGIRATPIAEAMMAIVLLDQLLRQRGQNADVRVDTPVLPQL
Take B5: the binding result is “binds”.

B6: PA3654 uridylate kinase (protein, UniProt O82852 1-245)
chain: MAQQLSARQPRYKRILLKLSGEALMGSEEFGIDPKVLDRMALEIGQLVGIGVQVGLVIGGGNLFRGAALSAAGMDRVTGDHMGMLATVMNGLAMRDALERSNIPALVMSAISMVGVTDHYDRRKAMRHLGGGEVVIFSAGTGNPFFTTDSAACLRAIEIDADVVLKATKVDGVYTADPFKDPNAEKFERLTYDEVLDRKLGVMDLTAICLCRDQNMPLRVFNMNKPGALLNIVVGGAEGTLIEEG
B6: the binding entry is listed as “binds”.

B7: PA4992 hypothetical protein (protein, UniProt Q9HUH3 1-270)
chain: MIRDTLHDLHRPLGDTGLAVSPLGLGTVKFGRDQGVKYPSGFTIPDDREAADLLALARDLGINLIDTAPAYGRSEERLGPLLRGQREHWVIVSKVGEEFVDGQSVFDFSAAHTRRSVERSLKRLETDRIELVLVHSDGNDLDILENSEVYPTLAALKREGLIGAYGLSGKTVEGGLRALREGDCAMVTYNLNERAERPVIEYAAAHAKGILVKKALASGHACLGAGQDPVRASFELVFDQPGVAAAIVGTINPLHLAHNVAMAAQALKKA
With B7, the binding result is on record as “binds”.

B8: PA5015 pyruvate dehydrogenase (protein, UniProt Q59637 1-882)
chain: MQDLDPVETQEWLDALESVLDREGEDRAHYLMTRMGELASRSGTQLPYAITTPYRNTIPVTHEARMPGDLFMERRIRSLVRWNALAMVMRANKHDPDLGGHISTFASSATLYDIGFNYFFQAPTDEHGGDLVFFQGHASPGVYARAFLEGRISEEQLENFRQEVDGNGLSSYPHPWLMPDFWQFPTVSMGLGPIQAIYQARFMKYLESRGFIPAGKQKVWCFMGDGECDEPESLGAISLAGREKLDNLIFVINCNLQRLDGPVRGNAKIIQELEGVFRGAEWNVNKVIWGRFWDPLFAKDTAGLLQQRMDEVIDGEYQNYKAKDGAYVREHFFGARPELLEMVKDLSDEEIWKLNRGGHDPYKVYAAYHQAVNHKGQPTVILAKTIKGYGTGSGEAKNIAHNVKKVDVDSLRAFRDKFDIPVKDADLEKLPFYKPEEGSAEAKYLAERRAALGGFMPVRRQKSMSVPVPPLETLKAMLDGSGDREISTTMAFVRIISQLVKDKELGPRIVPIVPDEARTFGMEGMFRQLGIYSSVGQLYEPVDKDQVMFYREDKKGQILEEGINEAGAMSSWIAAGTSYSTHNQPMLPFYIFYSMFGFQRIGDLAWAAGDSRAHGFLIGGTAGRTTLNGEGLQHEDGHSHLLASTIPNCRTYDPTYAYELAVIIREGSRQMIEEQQDIFYYITVMNENYVQPAMPKGAEEGIIKGMYLLEEDKKEAAHHVQLLGSGTILREVEEAAKLLRNDFGIGADVWSVPSFNELRRDGLAVERWNRLHPGQKPKQSYVEECLGGRRGPVIASTDYMKLYAEQIRQWVPSKEYKVLGTDGFGRSDSRKKLRNFFEVDRHWVVLAALEALADRGDIEPKVVAEAIAKYGIDPEKRNPLDC
For the molecule B8, the binding result is reported as “binds”.

B9: PA3729 conserved hypothetical protein (protein, UniProt Q9HXR3 1-688)
chain: MDMTSLMPLLLGVGLVVLLVVGLLALFKAFYIKVPQGTALIVNDMSSTPKVHFTGALVYPVIHLKEFMRISLITLEVDRRGKDGLICRDNMRADITVAFYLRVNETQDDVLKVAKAIGVDRASDRSAVNELFNAKFSEALKTVGKQFDFVQLFENRQDFRDRIIEVIGNDLNGYVLEDVAIDYLEQTAKNSLDPSNILDAEGIRKITELTATQNVITNELERNEELAIKKKNVETREAALALERQQADAEARQKREIETIRAREEAETARVKEEERLKAEQARIQAQQEIDVRTENHQREVEVAQQNRQRAVVIEVEKVTRAKDLEIVAREREVELQKIEKEKALEEQRKNIANVIRERVAVEKTVAQEEERIKEVREVSEAERVKQVILLQAQAEAEQELVRQVKQAEADEARSKHKAVEINTMAQAELEAASKQAEAKKRLAEGIEAERAAPGLADARVLEVTAAAKEKDGLAAARVRAEQLIAEARGDEERGLADARVLEAQAAAKEKDGLAEAKVLAEKLGAQARGEEQLGAAKAKATKDQGSAEAEVLLQRLNAEAEGLGKKFGALDALSDSARQHEEFRMQLEKSFEEAMAAIAANKDIAKDQAEVLATALGKANIEIVGGEGDFFNSFAKSLSVGKAIEGVVGKSPVVQDVLARLLNGRGAAAAVMPERKSGHENEPAAEV
B9: the binding entry is given as “binds”.
